Assay results from the supplement of paper PMC10849652.
Some of the results follow.

Amino acid sequences for entries named in this document (tags omitted). A change or cut given only in a name is not applied to a line headed by its entry.
UniProt Q7L5Y6, whole entry, looked up: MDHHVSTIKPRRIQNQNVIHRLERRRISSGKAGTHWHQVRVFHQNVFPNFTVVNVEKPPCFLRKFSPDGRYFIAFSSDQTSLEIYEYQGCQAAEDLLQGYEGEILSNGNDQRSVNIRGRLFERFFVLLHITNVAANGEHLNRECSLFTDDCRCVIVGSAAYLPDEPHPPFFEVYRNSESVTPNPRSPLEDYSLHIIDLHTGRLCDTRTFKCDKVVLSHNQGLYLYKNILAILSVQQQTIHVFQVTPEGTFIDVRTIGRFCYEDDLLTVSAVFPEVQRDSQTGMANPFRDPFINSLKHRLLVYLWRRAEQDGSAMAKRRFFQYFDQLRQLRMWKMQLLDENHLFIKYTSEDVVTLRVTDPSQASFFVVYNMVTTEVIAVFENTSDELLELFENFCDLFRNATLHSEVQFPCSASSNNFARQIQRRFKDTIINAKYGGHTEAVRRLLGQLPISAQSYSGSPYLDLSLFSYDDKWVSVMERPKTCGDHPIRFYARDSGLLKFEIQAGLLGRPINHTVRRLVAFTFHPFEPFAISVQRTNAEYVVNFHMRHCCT
UniProt Q9BSY9: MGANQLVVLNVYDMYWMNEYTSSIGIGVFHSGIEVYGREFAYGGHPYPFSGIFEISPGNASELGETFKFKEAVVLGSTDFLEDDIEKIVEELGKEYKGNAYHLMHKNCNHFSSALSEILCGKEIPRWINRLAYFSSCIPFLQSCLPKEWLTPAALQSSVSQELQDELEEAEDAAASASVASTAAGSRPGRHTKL
UniProt Q5QP82: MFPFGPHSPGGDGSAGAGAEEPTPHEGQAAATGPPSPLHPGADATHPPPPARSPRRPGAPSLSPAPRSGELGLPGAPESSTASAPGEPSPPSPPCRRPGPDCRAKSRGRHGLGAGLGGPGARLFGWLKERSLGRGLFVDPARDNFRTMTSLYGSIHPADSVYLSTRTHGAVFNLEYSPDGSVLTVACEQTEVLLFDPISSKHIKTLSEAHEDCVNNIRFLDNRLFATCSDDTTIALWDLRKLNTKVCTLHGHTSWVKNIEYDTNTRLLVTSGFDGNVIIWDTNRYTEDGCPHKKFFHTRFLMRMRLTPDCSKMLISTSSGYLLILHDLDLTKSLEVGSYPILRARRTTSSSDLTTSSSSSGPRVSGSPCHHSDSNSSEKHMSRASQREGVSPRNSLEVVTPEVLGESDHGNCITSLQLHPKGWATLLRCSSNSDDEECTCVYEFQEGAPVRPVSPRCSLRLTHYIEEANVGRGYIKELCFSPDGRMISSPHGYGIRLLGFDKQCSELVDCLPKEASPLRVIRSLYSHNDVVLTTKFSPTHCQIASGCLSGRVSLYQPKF
UniProt Q6ICB0: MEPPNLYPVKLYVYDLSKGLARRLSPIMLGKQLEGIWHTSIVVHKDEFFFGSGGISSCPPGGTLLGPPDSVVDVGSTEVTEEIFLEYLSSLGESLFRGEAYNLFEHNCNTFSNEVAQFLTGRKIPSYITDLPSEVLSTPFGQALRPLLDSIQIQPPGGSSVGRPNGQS
UniProt Q9UBU7: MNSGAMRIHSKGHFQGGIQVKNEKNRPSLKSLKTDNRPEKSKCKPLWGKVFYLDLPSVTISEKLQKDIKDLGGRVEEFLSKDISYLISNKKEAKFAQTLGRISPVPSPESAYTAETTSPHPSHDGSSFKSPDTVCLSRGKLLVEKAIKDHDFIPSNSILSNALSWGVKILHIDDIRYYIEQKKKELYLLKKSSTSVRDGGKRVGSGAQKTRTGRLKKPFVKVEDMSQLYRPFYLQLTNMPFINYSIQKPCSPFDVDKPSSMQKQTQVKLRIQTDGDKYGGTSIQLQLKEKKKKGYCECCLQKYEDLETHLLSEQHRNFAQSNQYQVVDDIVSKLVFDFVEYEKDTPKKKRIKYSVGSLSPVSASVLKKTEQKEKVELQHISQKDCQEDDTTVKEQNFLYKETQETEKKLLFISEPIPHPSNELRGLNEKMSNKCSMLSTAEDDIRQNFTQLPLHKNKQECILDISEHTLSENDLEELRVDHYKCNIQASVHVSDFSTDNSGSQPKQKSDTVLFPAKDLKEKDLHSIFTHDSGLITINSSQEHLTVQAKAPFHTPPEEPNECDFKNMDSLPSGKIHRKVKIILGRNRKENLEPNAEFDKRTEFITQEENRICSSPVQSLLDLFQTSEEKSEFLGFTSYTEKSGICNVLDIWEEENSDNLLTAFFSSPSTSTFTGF
UniProt O75398: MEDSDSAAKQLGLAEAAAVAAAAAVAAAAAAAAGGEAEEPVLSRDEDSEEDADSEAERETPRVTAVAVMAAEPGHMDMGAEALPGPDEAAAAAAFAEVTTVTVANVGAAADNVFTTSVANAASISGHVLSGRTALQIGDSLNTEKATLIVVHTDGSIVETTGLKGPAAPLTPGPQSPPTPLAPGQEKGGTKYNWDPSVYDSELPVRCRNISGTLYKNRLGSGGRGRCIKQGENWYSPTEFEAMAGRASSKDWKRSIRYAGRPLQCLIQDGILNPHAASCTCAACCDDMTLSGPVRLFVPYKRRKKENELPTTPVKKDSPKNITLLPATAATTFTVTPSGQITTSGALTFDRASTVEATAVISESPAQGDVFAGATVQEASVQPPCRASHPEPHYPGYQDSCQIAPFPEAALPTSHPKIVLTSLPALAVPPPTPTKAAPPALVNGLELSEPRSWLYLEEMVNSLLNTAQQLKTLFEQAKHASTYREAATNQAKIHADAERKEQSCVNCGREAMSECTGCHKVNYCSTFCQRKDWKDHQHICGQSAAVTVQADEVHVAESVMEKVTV
UniProt Q8N8A6: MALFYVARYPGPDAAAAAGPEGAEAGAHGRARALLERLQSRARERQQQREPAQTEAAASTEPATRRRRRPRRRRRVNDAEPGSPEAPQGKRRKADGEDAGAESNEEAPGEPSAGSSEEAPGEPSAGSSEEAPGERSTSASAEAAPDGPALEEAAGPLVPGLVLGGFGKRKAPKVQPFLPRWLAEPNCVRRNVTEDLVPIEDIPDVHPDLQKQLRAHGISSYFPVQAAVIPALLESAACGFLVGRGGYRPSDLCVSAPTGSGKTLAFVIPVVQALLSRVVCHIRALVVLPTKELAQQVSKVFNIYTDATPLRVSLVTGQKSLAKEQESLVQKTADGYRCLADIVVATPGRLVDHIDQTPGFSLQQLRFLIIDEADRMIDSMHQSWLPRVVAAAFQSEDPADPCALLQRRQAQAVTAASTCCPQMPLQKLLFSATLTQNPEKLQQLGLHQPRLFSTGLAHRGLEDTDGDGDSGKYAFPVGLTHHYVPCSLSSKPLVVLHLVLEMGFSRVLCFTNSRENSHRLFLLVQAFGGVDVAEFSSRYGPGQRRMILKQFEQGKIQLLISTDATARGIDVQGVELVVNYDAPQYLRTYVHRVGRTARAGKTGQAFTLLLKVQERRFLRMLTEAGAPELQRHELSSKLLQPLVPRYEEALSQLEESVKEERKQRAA
UniProt O43293: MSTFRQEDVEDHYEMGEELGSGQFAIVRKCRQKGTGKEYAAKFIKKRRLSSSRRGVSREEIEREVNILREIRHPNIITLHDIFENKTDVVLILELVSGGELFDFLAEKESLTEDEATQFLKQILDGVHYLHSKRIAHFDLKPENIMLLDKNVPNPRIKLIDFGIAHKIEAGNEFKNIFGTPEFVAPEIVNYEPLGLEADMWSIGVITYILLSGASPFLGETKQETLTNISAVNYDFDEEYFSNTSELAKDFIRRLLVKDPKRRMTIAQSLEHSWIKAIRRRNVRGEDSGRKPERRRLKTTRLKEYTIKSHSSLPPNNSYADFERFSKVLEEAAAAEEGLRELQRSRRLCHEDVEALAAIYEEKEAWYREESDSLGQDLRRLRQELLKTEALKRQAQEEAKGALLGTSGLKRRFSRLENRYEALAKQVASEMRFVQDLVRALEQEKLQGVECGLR
UniProt Q6VVX0: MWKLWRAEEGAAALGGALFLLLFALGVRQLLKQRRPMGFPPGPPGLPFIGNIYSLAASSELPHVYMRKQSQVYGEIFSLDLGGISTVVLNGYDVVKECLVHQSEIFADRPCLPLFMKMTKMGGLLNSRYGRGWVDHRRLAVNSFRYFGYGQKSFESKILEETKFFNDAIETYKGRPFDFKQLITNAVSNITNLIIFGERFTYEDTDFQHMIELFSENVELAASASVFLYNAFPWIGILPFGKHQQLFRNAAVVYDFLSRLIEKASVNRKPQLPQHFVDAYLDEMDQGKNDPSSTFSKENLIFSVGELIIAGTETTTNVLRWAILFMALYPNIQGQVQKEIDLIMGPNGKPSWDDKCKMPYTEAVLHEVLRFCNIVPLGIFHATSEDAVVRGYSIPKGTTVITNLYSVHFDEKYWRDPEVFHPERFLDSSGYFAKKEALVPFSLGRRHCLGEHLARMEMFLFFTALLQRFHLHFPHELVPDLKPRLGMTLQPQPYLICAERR
UniProt O43739: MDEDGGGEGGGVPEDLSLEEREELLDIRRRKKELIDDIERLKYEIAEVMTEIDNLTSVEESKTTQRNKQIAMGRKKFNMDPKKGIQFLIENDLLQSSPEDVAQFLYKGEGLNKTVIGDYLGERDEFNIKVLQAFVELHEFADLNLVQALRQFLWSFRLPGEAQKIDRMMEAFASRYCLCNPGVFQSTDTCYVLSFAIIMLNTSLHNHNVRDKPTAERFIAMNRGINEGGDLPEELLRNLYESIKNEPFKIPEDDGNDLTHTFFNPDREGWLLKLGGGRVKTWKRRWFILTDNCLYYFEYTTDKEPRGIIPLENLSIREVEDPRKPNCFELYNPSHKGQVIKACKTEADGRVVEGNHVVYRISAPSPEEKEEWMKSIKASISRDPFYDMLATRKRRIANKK
UniProt Q8IWE4: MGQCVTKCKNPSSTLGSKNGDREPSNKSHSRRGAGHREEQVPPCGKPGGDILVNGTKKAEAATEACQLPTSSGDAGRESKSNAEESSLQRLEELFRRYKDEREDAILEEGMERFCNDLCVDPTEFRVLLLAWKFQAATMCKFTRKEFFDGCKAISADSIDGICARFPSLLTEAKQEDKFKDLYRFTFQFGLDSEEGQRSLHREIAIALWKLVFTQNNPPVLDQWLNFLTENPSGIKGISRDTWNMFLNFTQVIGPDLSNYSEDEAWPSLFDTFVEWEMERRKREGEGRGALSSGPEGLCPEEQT
UniProt Q9NX09: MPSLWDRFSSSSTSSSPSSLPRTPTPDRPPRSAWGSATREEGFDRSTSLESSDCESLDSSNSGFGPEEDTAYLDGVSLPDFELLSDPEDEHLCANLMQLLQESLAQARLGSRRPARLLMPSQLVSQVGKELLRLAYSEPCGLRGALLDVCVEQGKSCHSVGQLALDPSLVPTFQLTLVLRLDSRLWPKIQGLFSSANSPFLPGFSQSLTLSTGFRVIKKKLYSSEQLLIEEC
UniProt Q6IQ26: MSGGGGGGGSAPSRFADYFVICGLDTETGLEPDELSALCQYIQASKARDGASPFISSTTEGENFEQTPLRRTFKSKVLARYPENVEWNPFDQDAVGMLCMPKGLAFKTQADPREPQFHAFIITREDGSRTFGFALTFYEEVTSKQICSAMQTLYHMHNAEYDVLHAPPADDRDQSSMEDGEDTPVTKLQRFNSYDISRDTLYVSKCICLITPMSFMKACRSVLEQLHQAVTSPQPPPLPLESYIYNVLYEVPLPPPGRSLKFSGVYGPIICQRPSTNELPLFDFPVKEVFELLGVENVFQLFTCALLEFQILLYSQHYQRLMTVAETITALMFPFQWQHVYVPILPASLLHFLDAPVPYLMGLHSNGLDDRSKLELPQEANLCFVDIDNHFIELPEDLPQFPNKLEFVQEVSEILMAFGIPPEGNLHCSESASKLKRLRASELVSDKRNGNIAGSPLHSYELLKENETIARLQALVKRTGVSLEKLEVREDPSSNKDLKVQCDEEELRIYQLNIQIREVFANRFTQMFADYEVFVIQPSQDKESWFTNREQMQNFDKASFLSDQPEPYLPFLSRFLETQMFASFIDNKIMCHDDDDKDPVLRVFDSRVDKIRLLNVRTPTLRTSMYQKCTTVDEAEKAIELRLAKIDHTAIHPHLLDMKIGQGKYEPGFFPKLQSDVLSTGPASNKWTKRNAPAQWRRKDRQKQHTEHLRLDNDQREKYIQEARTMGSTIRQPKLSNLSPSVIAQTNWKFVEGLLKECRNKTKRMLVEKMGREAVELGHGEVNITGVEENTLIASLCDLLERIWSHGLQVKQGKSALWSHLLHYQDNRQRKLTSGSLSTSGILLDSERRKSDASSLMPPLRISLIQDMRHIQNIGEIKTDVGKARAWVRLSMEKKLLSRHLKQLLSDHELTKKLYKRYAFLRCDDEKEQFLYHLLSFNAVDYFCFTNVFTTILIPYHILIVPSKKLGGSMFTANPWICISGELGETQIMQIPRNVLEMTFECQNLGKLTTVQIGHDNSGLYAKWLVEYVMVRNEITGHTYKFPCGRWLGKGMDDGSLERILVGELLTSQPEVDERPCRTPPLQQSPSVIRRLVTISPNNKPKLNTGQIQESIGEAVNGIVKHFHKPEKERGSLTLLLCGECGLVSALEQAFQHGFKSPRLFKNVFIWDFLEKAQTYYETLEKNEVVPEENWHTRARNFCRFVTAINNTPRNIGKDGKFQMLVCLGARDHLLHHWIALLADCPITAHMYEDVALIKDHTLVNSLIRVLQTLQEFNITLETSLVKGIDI

Columns and labels:
Assay in all cases: log2 fold change, soluble protein after heating vs DMSO (PISA); higher = thermal stabilisation; K562 lysate, 10 uM; active = over 0.2 and 3.5 SD of the protein, either way, in both replicates (recomputed)
lapatinib = compound: CS(=O)(=O)CCNCc1ccc(-c2ccc3ncnc(Nc4ccc(OCc5cccc(F)c5)c(Cl)c4)c3c2)o1 [lapatinib]
Outline: (§1)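 Values give the log-two fold change in thermal stability against solvent controls, from duplicates. Crude K562 extract at 1 mg/mL protein, made by dounce homogenisation in PBS pH 7.4 with 1 mM MgCl2, was treated with 10 μM compound for 30 min. After 3 min heating across 48°C-58°C, aliquots were pooled, adjusted to 0.5% NP-40 at 4°C and centrifuged at 21,000xg for 90 min. The supernatant was measured by TMTpro 16plex LC-MS/MS with channel sums equalised.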

crizotinib = compound: C[C@@H](Oc1cc(-c2cnn(C3CCNCC3)c2)cnc1N)c1c(Cl)ccc(F)c1Cl [crizotinib]
Outline: as §1

doramapimod = compound: Cc1ccc(-n2nc(C(C)(C)C)cc2NC(=O)Nc2ccc(OCCN3CCOCC3)c3ccccc23)cc1 [doramapimod]
Outline: as §1

[1] = compound: C[C@H](C1=CC=C(C=C1)C(=O)NC2=C3C=CNC3=NC=C2)N
Outline: as §1

gandotinib = compound: Cc1cc(Nc2cc(CN3CCOCC3)c3nc(C)c(Cc4ccc(Cl)cc4F)n3n2)n[nH]1 [gandotinib]
Outline: as §1

tozasertib = compound: Cc1cc(Nc2cc(N3CCN(C)CC3)nc(Sc3ccc(NC(=O)C4CC4)cc3)n2)n[nH]1 [tozasertib]
Outline: as §1

[2] = compound: Cc1cccc(CC(=O)N2CCc3c2ccc(-c2cn(C)c4ncnc(N)c24)c3F)n1
Outline: as §1

duvelisib = compound: C[C@H](Nc1ncnc2nc[nH]c12)c1cc2cccc(Cl)c2c(=O)n1-c1ccccc1 [duvelisib]
Outline: as §1

pictilisib = compound: CS(=O)(=O)N1CCN(Cc2cc3nc(-c4cccc5[nH]ncc45)nc(N4CCOCC4)c3s2)CC1 [pictilisib]
Outline: as §1

bafetinib = compound: Cc1ccc(NC(=O)c2ccc(CN3CC[C@H](N(C)C)C3)c(C(F)(F)F)c2)cc1Nc1nccc(-c2cncnc2)n1 [bafetinib]
Outline: as §1

Measured: log2 fold change

DET1 isoform 2 (UniProt Q7L5Y6)
inactive: lapatinib 0.016 | crizotinib -0.063 | doramapimod -0.038

DESI2 (UniProt Q9BSY9)
inactive: [1] -0.095 | gandotinib -0.078 | tozasertib -0.095 | [2] 0.316

CYREN isoform 4 (UniProt Q9BWK5)
inactive: crizotinib -0.088 | [1] 0 | duvelisib -0.037 | gandotinib -0.059 | doramapimod 0.065 | [2] 0.034

DEPDC5 (UniProt O75140)
inactive: pictilisib 0.014 | [1] -0.01 | gandotinib -0.032 | bafetinib -0.042 | [2] -0.01

DEF8 (UniProt Q6ZN54)
inactive: pictilisib -0.02 | crizotinib -0.137 | duvelisib -0.01 | tozasertib 0.013 | doramapimod -0.153 | bafetinib -0.123

DCBLD2 isoform 2 (UniProt Q96PD2)
inactive: lapatinib -0.029 | [1] -0.065 | duvelisib 0.133 | gandotinib -0.055 | [2] 0.06

DDX28 (UniProt Q9NUL7)
inactive: pictilisib -0.185 | crizotinib 0.034 | [1] 0.181 | duvelisib 0.059 | gandotinib -0.154 | doramapimod 0.136 | bafetinib -0.083 | [2] 0.119

DCAF10 (UniProt Q5QP82)
inactive: pictilisib 0.009 | crizotinib 0.047 | [1] -0.074 | duvelisib -0.003 | gandotinib -0.182 | tozasertib -0.004 | doramapimod -0.023 | bafetinib 0.007 | [2] 0.164

DESI1 (UniProt Q6ICB0)
inactive: pictilisib 0.049 | crizotinib 0.175 | [1] 0.08 | duvelisib -0.021 | gandotinib -0.054 | tozasertib -0.072 | doramapimod -0.068 | bafetinib 0 | [2] 0.012

DEPDC1B (UniProt Q8WUY9)
inactive: duvelisib 0.068 | tozasertib -0.439

DBF4 (UniProt Q9UBU7)
inactive: pictilisib 0 | crizotinib -0.031 | duvelisib 0.004 | gandotinib 0.059 | tozasertib -0.009 | doramapimod -0.018 | bafetinib -0.028 | [2] 0.035
active: [1] -0.409

DEAF1 (UniProt O75398)
inactive: duvelisib 0.056 | tozasertib 0.003

CYP4F11 (UniProt Q9HBI6)
inactive: [1] -0.249 | duvelisib -0.056 | gandotinib 0.36 | [2] 0.096

Copied from the entries so far (6 entries):
DET1 isoform 2 (UniProt Q7L5Y6)
inactive: lapatinib 0.016 | crizotinib -0.063 | doramapimod -0.038

DESI2 (UniProt Q9BSY9)
inactive: [1] -0.095 | gandotinib -0.078 | tozasertib -0.095 | [2] 0.316

CYREN isoform 4 (UniProt Q9BWK5)
inactive: crizotinib -0.088 | [1] 0 | duvelisib -0.037 | gandotinib -0.059 | doramapimod 0.065 | [2] 0.034

DEPDC5 (UniProt O75140)
inactive: pictilisib 0.014 | [1] -0.01 | gandotinib -0.032 | bafetinib -0.042 | [2] -0.01

DEF8 (UniProt Q6ZN54)
inactive: pictilisib -0.02 | crizotinib -0.137 | duvelisib -0.01 | tozasertib 0.013 | doramapimod -0.153 | bafetinib -0.123

DCBLD2 isoform 2 (UniProt Q96PD2)
inactive: lapatinib -0.029 | [1] -0.065 | duvelisib 0.133 | gandotinib -0.055 | [2] 0.06

The listing continues.

DDX51 (UniProt Q8N8A6)
inactive: lapatinib -0.016 | crizotinib -0.036 | [1] 0.048 | duvelisib 0.087 | gandotinib -0.018 | doramapimod 0.129 | [2] 0.051

DAPK3 (UniProt O43293)
inactive: lapatinib -0.026 | [1] 0.048 | gandotinib 0.507 | [2] -0.079

CYP2R1 (UniProt Q6VVX0)
inactive: lapatinib 0.035 | duvelisib 0.021 | tozasertib 0.014

DCAF12 (UniProt Q5T6F0)
inactive: pictilisib 0.032 | crizotinib -0.008 | duvelisib -0.056 | tozasertib 0.049 | doramapimod -0.065 | bafetinib 0.037

DENND1C (UniProt Q8IV53)
inactive: pictilisib -0.057 | crizotinib -0.102 | duvelisib 0.082 | doramapimod 0.095 | bafetinib -0.305

DDX19A isoform 2 (UniProt Q9NUU7)
inactive: crizotinib -0.527 | doramapimod 0.093

DCBLD1 (UniProt Q8N8Z6)
inactive: lapatinib 0.175 | [1] -0.102 | duvelisib -0.06 | gandotinib -0.022 | tozasertib 0.042 | [2] 0.062

CYTH3 (UniProt O43739)
inactive: lapatinib -0.189 | [1] 0.039 | gandotinib -0.046 | [2] 0.008

DCUN1D3 (UniProt Q8IWE4)
inactive: pictilisib -0.019 | [1] -0.254 | duvelisib -0.088 | gandotinib -0.598 | tozasertib 0.07 | bafetinib 0.078 | [2] -0.018

DDIT4 (UniProt Q9NX09)
inactive: crizotinib -0.007 | tozasertib -0.077 | doramapimod 0.167

DENND5A (UniProt Q6IQ26)
inactive: crizotinib 0.107 | duvelisib -0.082 | doramapimod -0.102

DCAF12L2 (UniProt Q5VW00)
inactive: pictilisib -0.044 | tozasertib 0.104 | bafetinib 0.003
